Data reported in paper PMC8997993.

B1: PRE transcription factor AT1G26945 (protein, UniProt Q8GW32 1-94)
chain: MSSRRSSRSRQSGSSRISDDQISDLVSKLQHLIPELRRRRSDKVSASKVLQETCNYIRNLHREVDDLSDRLSELLASTDDNSAEAAIIRSLLNY
B2: PRE transcription factor AT5G15160 (protein, UniProt Q9LXG5 1-94)
chain: MSSSRRSRQASSSSRISDDQITDLISKLRQSIPEIRQNRRSNTVSASKVLQETCNYIRNLNKEADDLSDRLTQLLESIDPNSPQAAVIRSLING
B3: PRE transcription factor AT5G39860 (protein, UniProt Q9FLE9 1-92)
chain: MSNRRSRQSSSAPRISDNQMIDLVSKLRQILPEIGQRRRSDKASASKVLQETCNYIRNLNREVDNLSERLSQLLESVDEDSPEAAVIRSLLM

These binders were tested against HLH4-3×FLAG-3×MYC (35S-HLH4-3 × FLAG-3 × MYC transgenic plants) (A. thaliana) (assay: affinity purification with mass spectrometry; total protein of HLH4 overexpression plants (35S-HLH4-3×FLAG-3×MYC); FLAG M2 magnetic beads, 3 h at 4 °C; 50 mM Tris-HCl pH 7.5, 0.15 M NaCl, 5 mM MgCl2, 0.2% NP-40, 10% glycerol; eluate separated by SDS-PAGE and analysed by mass spectrometry).
B1 was tested, and the binding was “binds”.
For B2, the binding was “binds”.
With B3 the binding was “binds”.

No constants are given. Whether binding was seen depends on the method and setting. In cells and extracts the contact can be indirect. Here binding means that the protein was enriched with, or labelled near, the bait; the list need not be complete.
